{
  "source": "paper PMC4797271",
  "biological_target": "T1, ComA (UniProt P14204)",
  "T1 sequence (looked up, limits assumed)": "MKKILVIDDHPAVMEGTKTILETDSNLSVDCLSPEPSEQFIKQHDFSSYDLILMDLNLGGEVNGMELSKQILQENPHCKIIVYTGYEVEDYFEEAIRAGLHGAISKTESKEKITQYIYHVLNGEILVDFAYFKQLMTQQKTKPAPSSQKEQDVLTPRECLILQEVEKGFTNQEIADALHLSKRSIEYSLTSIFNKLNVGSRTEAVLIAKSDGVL",
  "test": "EMSA",
  "conditions": "EMSA: 10 mM HEPES pH 7.6, 2 mM MgCl2, 0.1 mM EDTA, 200 mM KCl, 5 mM DTT, 10% glycerol, 10 ng DNA in 15 ul, 20 min, room temperature, recombinant protein, protein details: N-terminal His6 (from expression primer), label: 5' biotin on strand 1",
  "note": "Construct, isoform or probe ends are uncertain for at least one entry. Weaker means in comparison with the reference protein, sequence or condition of that experiment. Tags and fusion partners may be left off the protein sequences shown.",
  "data": [
    {"sequence": "AAACTGGAATCGAAACTTTGCGGCCATTTGCGGTGATAAAAACATTTTT (double strand) [PDR n4]", "values": [
      {"measurement": "binding result", "setting": "binds at higher ComA", "value": "binds more weakly"}
    ]},
    {"sequence": "ATGTTTAGTGGAAATGATTGCGGCATCTCCGCAAAAAATATTGCTGTAAAT (double strand) [PIR n5]", "values": [
      {"measurement": "binding result", "setting": "tolerated, n=4 optimal", "value": "binds more weakly"}
    ]}
  ]
}
